The experiment is described as follows: qHTS Assay for Lipid Storage Modulators in Drosophila S3 Cells.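 On cell number change: cells counted by Cell Tracker Red CMTPX staining in the red channel.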 To be noted: BODIPY lipid droplet fluorescence, 18-24 h; for cell number change: measured here: cell count max response, cells fed with added oleic acid. An outline of the steps:
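Drosophila S3 cells got compounds at several concentrations plus oleic acid (400 uM solution). Laser-scanning cytometry with 488 nm excitation read lipid droplets at 500-530 nm and cells at 575-640 nm. Percent activity was relative to 20 uM Triacsin C.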

Where [1] appears, read: measured here: lipid fluorescence (Fed channel) AC50, cells fed with added oleic acid.
Where [2] appears, read: measured here: cell number channel AC50, cells fed with added oleic acid.

Drawing on PubChem BioAssay AID2685 (National Center for Advancing Translational Sciences (NCATS), 2010), this text covers cell number change and AC50 for 37 molecules.

Some of the results follow. These are further read-outs of the screen, such as a control signal, another cell line or another target. No call is given for them. Compounds called inactive in the main read-out are mostly missing here. Words in brackets tell the shape of the fitted curve; partial curves, single points and poor fits give uncertain potencies.

`Cc1ccc(C(=O)CSc2n[nH]c(-c3ccco3)n2)cc1C`: the cell number change worked out at 2.58%. In addition, the AC50 under setting [1] was 16.4 µM [rising, single point].

In the case of `CCc1ccc(NC(=O)[C@H](NC(=O)[C@@H]2Cc3ccccc3CN2)c2ccccc2)cc1`, the cell number change was 20%. The AC50 under setting [2] is 0.164 µM [rising, full curve, poor fit]. The concentration at half-maximal activity (AC50) under setting [1] is 29.1 µM [rising, single point].

On to `CN(C)C(=S)NC(=NCc1ccc([N+](=O)[O-])cc1)c1ccccc1`, for which the cell number change was -19.1%. For the same molecule, the AC50 under setting [1] was 29.1 µM [falling, single point].

Turning to `O=C(CCNS(=O)(=O)c1ccc(Br)s1)NCc1ccccc1`, the cell number change stood at 7.74%. Further, the AC50 under setting [1] is 0.00461 µM [falling, full curve, poor fit].

With `CCOc1ccc(C(=O)Nc2nnc(NC(=S)Nc3ccccc3)s2)cc1`, the cell number change was -23.2%. For the same molecule, the AC50 under setting [1] was 0.092 µM [falling, full curve, poor fit].

In the case of `Cc1ccc2[nH]c(CNC(=O)c3ccc(F)cc3)cc2c1`, the cell number change worked out at 1.65%. Moreover, the half-maximal activity concentration (AC50) under setting [1] was 0.58 µM [rising, single point].

Turning to `CCCc1cc(=O)[nH]c(SCc2cc(C(=O)OC)c(C)o2)n1`, the cell number change is -11.3%. In addition, under setting [1], the concentration at half-maximal activity (AC50) was 0.103 µM [rising, full curve, poor fit].

As to `CSc1sccc1/C=N/O`, the cell number change was -50.8%. Besides, the AC50 under setting [2] is 25.9 µM [falling, single point]. Besides, the AC50 under setting [1] was 29.1 µM [falling, single point].

Take `CCc1cc2c(=O)n(CC(C)C)cnc2s1`: the cell number change stood at 15.1%. Further, the AC50 under setting [1] was 1.84 µM [falling, partial curve, poor fit].

In the case of `Fc1ccc(-c2cnc3n2CCCCC3)cc1`, the half-maximal activity concentration (AC50) reads like this: under setting [2], 6.51 µM [rising, single point]; under setting [1], 6.51 µM [rising, single point].

As to `CCOC(=O)C1=C(COC(=O)[C@H](C)NS(=O)(=O)c2ccc(NC(C)=O)cc2)NC(=O)NC1C` (some centres not stated), the cell number change is -23.5%. The AC50 under setting [1] is 32.6 µM [falling, single point].

Consider `O=C(C[n+]1ccc(-c2nnc3n2CCCCC3)cc1)c1ccc(Cl)cc1`, for which the cell number change is -11.7%.

In the case of `CCc1ccc(Oc2coc3cc(OCC(=O)Nc4cc(C)ccc4C)ccc3c2=O)cc1`, the cell number change was -31.8%. The AC50 under setting [2] is 1.64 µM [falling, full curve]. The AC50 under setting [1] is 1.64 µM [falling, full curve].

Regarding `O=C(CNC(=O)c1ccccc1)Oc1ccc([N+](=O)[O-])cc1`, the cell number change amounted to 23.4%. Moreover, the AC50 under setting [2] was 0.00411 µM [rising, full curve, poor fit]. In addition, the AC50 under setting [1] was 0.58 µM [rising, single point].

Consider `CCc1ccc(NC(=O)c2c(C(=O)Nc3ccccc3)sc3nc(C)cc(=O)n23)cc1`, for which the cell number change is -67.8%. Further, the AC50 under setting [2] was 2.06 µM [falling, partial curve]. Further, under setting [1], the AC50 is 5.8 µM [falling, single point].

Take `O=C(NCc1nnc(SCc2ccccc2)n1-c1ccccc1)C12CC3CC(CC(C3)C1)C2`: the cell number change was -20%. Further, the AC50 under setting [1] is 18.4 µM [falling, single point].

On to `CCOc1cc(CNCCO)cc(Br)c1OCc1cccs1`, for which the cell number change is -20.3%. Moreover, the AC50 under setting [1] is 8.2 µM [falling, single point].

Turning to `N#Cc1c(Sc2ncc(C(F)(F)F)cc2Cl)nsc1C/C=N\OCc1c(F)cccc1Cl`, the cell number change is -17.2%. For the same molecule, the concentration at half-maximal activity (AC50) under setting [1] was 29.1 µM [falling, single point].

With `COc1cc(C(=O)NCC(=O)NNC(=O)C2COc3ccccc3O2)cc(OC)c1OC` (configuration not stated), the cell number change was -0.429%. Under setting [1], the half-maximal activity concentration (AC50) is 0.00461 µM [falling, full curve, poor fit].

As for `CCC(C)NC(=O)CN(c1ccc(Cl)c(Cl)c1)S(C)(=O)=O` (configuration not stated), the cell number change was -14.8%. The half-maximal activity concentration (AC50) under setting [1] is 29.1 µM [falling, single point].

With `CCCC(=O)Nc1cc(=O)[nH]c2ncnn12`, the cell number change was -1.5%.

Consider `Cc1cc(C(=O)OCC(=O)Nc2c(F)cccc2F)c(C)n1-c1ccccc1`, for which the cell number change is -35.1%.

For `COC(=O)c1ccc(C)c(NC(=O)C2COc3ccccc3O2)c1` (configuration not stated), the cell number change is -14.8%. Besides, the half-maximal activity concentration (AC50) under setting [1] is 2.06 µM [rising, full curve, poor fit].

Consider `Cc1cc2c(c(=O)n1CCCn1ccnc1)C(c1ccco1)C(C#N)=C(N)O2` (configuration not stated), for which the concentration at half-maximal activity (AC50) under setting [2] is 5.17 µM [rising, single point] and the concentration at half-maximal activity (AC50) under setting [1] is 5.17 µM [falling, single point].

In the case of `Cc1cn(C2CC3OCC3O2)c(=O)[nH]c1=O` (configuration not stated), the cell number change was -4.77%. In addition, under setting [1], the AC50 is 29.1 µM [falling, single point].

`COc1ccc(CC(=O)Nc2ccc(C(=O)Nc3nccs3)cc2)cc1OC`: the cell number change is 5.41%. Further, the AC50 under setting [1] was 9.2 µM [rising, single point].

With `Cn1c(=O)c2[nH]c(N=Nc3ccc(N)cc3N)nc2n(C)c1=O`, the cell number change is -4.27%. The AC50 under setting [2] was 1.16 µM [falling, full curve].

Turning to `Cc1ccc(C)c(S(=O)(=O)N2CCCOC2CNC(=O)C(=O)NCCN2CCOCC2)c1` (configuration not stated), the cell number change worked out at 18.3%. Moreover, the AC50 under setting [1] was 25.9 µM [rising, single point].

For the molecule `O=C(Nc1ccc(-n2ccnc2P(=O)(O)c2ccccc2)cc1)c1ccccc1Cl`, the cell number change is -12.9%. Moreover, the AC50 under setting [2] was 0.00411 µM [falling, full curve, poor fit]. Also, under setting [1], the AC50 was 1.84 µM [falling, partial curve].

As to `CN(C(=O)c1ccc(COc2ccccc2Br)o1)c1ccccc1`, the cell number change was found to be 17.5%. The AC50 under setting [1] is 0.58 µM [falling, single point].

For `CCOC(=O)/C=C1\SCC(=O)N1CC(=O)Nc1ccccc1OC(F)F`, the cell number change amounted to 3.89%. Moreover, the AC50 under setting [1] is 0.411 µM [rising, partial curve, poor fit].

Take `COc1cc(-c2nnc3sc(-c4ccco4)nn23)cc(OC)c1OC`: the cell number change amounted to 4.3%.

Consider `CCOP(=O)(OCC)c1nc(-c2cccc3ccccc23)oc1NCc1ccccc1`, for which the cell number change came out at 28.5%.

In the case of `Cc1nc2ccc(S(=O)(=O)Nc3ccc(-c4nc5cccnc5s4)cc3)cc2s1`, the cell number change worked out at 38.5%. For the same molecule, under setting [2], the AC50 is 5.8 µM [rising, partial curve]. Moreover, the AC50 under setting [1] was 0.291 µM [rising, full curve, poor fit].

On to `Cn1c(COc2ccc(Cl)cc2)nnc1SCC(=O)Nc1ccc2c(c1)CCC2`, for which the cell number change is -50.1%. Moreover, the AC50 under setting [2] is 29.1 µM [falling, single point]. For the same molecule, the half-maximal activity concentration (AC50) under setting [1] is 25.9 µM [falling, partial curve].

For `Cc1ccc(C2CC(=O)NC(SCc3ccccc3)=C2C#N)o1` (configuration not stated), the cell number change was -0.141%. The AC50 under setting [1] was 6.51 µM [rising, full curve, poor fit].

On to `Cc1cc(C)c(NC(=O)Cn2nnc(C(=O)Nc3ccc(F)cc3F)c2N)c(C)c1`, for which the cell number change was found to be 5.07%. Moreover, the AC50 under setting [1] was 0.517 µM [rising, partial curve, poor fit].
